{"source": "patent US12258584B2", "about": "“Methods and systems for converting precursor cells into intestinal tissues through directed differentiation” (Children's Hospital Medical Center, priority 2010, dated 2025)", "system": "definitive endoderm from human embryonic and induced pluripotent stem cells", "assay": "Foregut/hindgut patterning of definitive endoderm by WNT, FGF, BMP and RA signaling (Cdx2, Sox2, HHex, Cerberus expression)", "assay_type": "cell-based", "conditions": "Retinoic acid 2 μM, especially first two days following DE induction", "protocol": "Following definitive endoderm (DE) induction with activin (100 ng/ml) for 3 days, a 2-4 day treatment was performed with the indicated combination of factors: Wnt3a (500 ng/ml) and Fgf4 (500 ng/ml), Retinoic acid (RA) in a range of 0.2-20 μM the BMP antagonist Noggin (50 ng/ml), the WNT antagonist […] (1-500 ng/ml).\nIn particular, FIGS. 14B and 14D depict the activation of FGF/WNT/BMP signaling promotes posterior/hindgut fate as indicated by expression of Cdx2. […] Activation of FGF/WNT/BMP signaling represses foregut fate as indicated by expression of Sox2 (FIG. 14C).\nThe effects of Retinoic Acid in promoting hindgut differentiation in a BMP dependent manner (FIGS. 15A-15D). […] Similar comparison was also performed by immunostaining (FIGS. 15C and 15D). Activation of RA signaling promotes posterior/hindgut fate as indicated by expression of Cdx2 and represses foregut fate as indicated by expression of Sox2. Immunostaining in FIG. 15C is quantified in FIG. 15D using an automated cell counting program.", "note": "For at least one compound, name, drawing or mass did not settle the structure."}
{"smiles": "CC1=C(/C=C/C(C)=C/C=C/C(C)=C/C(=O)O)C(C)(C)CCC1", "note": "[Retinoic acid, reference compound]", "values": [{"measurement": "posteriorization / hindgut differentiation of definitive endoderm", "value": "can posteriorize newly-formed definitive endoderm"}, {"measurement": "posteriorization / hindgut differentiation of definitive endoderm", "setting": "listed as retinoic acid", "value": "promotes hindgut differentiation in a BMP dependent manner"}]}
